This test can be described thus: qHTS Assay to Find Inhibitors of Chronic Active B-Cell Receptor Signaling. Particulars: ABC-DLBCL IkBa-CBG/CBR reporter, luminescence ratio (green luciferase fused to IkBa over red control in TMD8 lymphoma cells), 4 h. The essentials: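 Concentration-response series (up to 46 uM) were applied to TMD8 dual-reporter cells for 4 h at 37C with doxycycline. Green/red ratio, after filter-overlap correction, defined %Activity; red signal alone was normalised to basal cells and zero luminescence.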
(In general: qHTS replaces the single test concentration by a dilution series.)

The mark [1] stands for this setting: measured here: CBR red luminescence, cell number.

This is one part of the list. Shown are side measurements of this screen, not its main read-out; they come without a call. The list favours compounds with an active or inconclusive main result. Words in brackets tell the shape of the fitted curve; partial curves, single points and poor fits give uncertain potencies.

As usually defined, the AC50 is the concentration at which the activity in the assay is half-maximal.

Regarding `c1ccc2c(c1)CCN(c1nc3cc4c(cc3s1)OCO4)C2`, the AC50 under setting [1] was 10.3 µM [falling, partial curve, poor fit].

For `CCCOc1ccc(C(=O)NNC(=S)NC(=O)c2ccccc2)cc1`, the AC50 under setting [1] is 35.5 µM [rising, partial curve, poor fit]. Same read-out and setting: then `Cc1ccc(NC(=O)Nc2cnccn2)cc1C`, with 35.5 µM [falling, single point]; and `COc1cc(/C=N/Nc2nc3ccccc3s2)ccc1OC(=O)c1ccccc1F`, with 10.3 µM [rising, partial curve, poor fit]; and `Cc1ccc(S(=O)(=O)Nc2nc(C)cc(NN)n2)cc1`, with 35.5 µM [falling, single point]. Same read-out and setting: then `COc1ccc2c(c1)CC(C)C/C2=N\NC(=O)c1ccco1` (configuration not stated), with 35.5 µM [falling, single point].

On to `CCOC(=O)c1cnc(-c2cccc(OC)c2)[nH]c1=O`, for which the AC50 under setting [1] was 29.1 µM [falling, single point]. On to `CCn1cnc2cc(NC(=O)c3cccs3)ccc21`, for which the AC50 under setting [1] was 10 µM [falling, partial curve]. `c1ccc(NCc2nc(-c3ccccc3)no2)cc1`: under setting [1], the AC50 is 16.4 µM [falling, single point].

Take `COCCNc1oc(-c2ccc(F)cc2)nc1C#N`: the AC50 under setting [1] is 22.4 µM [rising, single point]. With `CC1CCN(c2ccc(-c3cccc(NC(=O)C(F)(F)F)c3)nn2)CC1`, the AC50 under setting [1] is 2.24 µM [falling, full curve]. `COC(=O)[C@@H](NC(=O)/C=C/c1ccc(OC)cc1)C(C)C`: the half-maximal activity concentration (AC50) under setting [1] is 1.12 µM [falling, full curve, poor fit]. As to `O=C(N/N=C/C(Cl)=C/c1ccc([N+](=O)[O-])cc1)C(=O)Nc1ccc(C(=O)O)cc1`, the AC50 under setting [1] is 0.501 µM [falling, full curve, poor fit]. Take `O=C(Nc1ccccc1Br)c1ccc(N2CCCC2=O)cc1`: the AC50 under setting [1] is 29.1 µM [falling, single point]. With `COc1ccc2oc(C(=O)OCC(=O)N(C)C3CCS(=O)(=O)C3)c(C)c2c1` (configuration not stated), the AC50 under setting [1] was 11.6 µM [falling, partial curve]. Turning to `O=C(c1ccco1)N1N=C(c2ccc3nccnc3c2)CC1c1ccccc1` (configuration not stated), the concentration at half-maximal activity (AC50) under setting [1] was 0.501 µM [rising, partial curve, poor fit].

For `Cc1cc(SCC(=O)c2ccc(O)c(O)c2)nc2ccccc12`, the AC50 under setting [1] is 35.5 µM [falling, single point]. For `Cc1nonc1NC(=O)CSc1nc2ccccc2cc1C#N`, the concentration at half-maximal activity (AC50) under setting [1] is 3.55 µM [falling, full curve]. Still for that read-out and setting: then `CCOc1ccc(NC(=O)C2CC(=O)OC2c2ccccc2)cc1` (configuration not stated), with 35.5 µM [rising, single point]; and `Cc1ccsc1/C=N/NC(=O)c1ccc2c(c1)OCCO2`, with 7.94 µM [falling, partial curve].

With `CCN1CCCC1CNC(=O)C1CCN(Cc2nc(-c3cccc(Br)c3)oc2C)CC1` (configuration not stated), under setting [1], the AC50 is 15.8 µM [falling, single point].

In the case of `CC(C)N1C(=O)/C(=C\c2nc3ccccc3c(=O)n2-c2ccccc2)c2ccccc21`, the AC50 under setting [1] was 0.13 µM [rising, full curve]. Turning to `CCOc1cc(N2CCOCC2)c(OCC)cc1NC(=O)C1=COCCO1`, under setting [1], the AC50 is 11.6 µM [falling, single point]. The same measure, in the same setting: then `Cc1nc2ccc(NC(=O)C3COc4ccccc4O3)cc2s1` (configuration not stated), with 3.16 µM [rising, partial curve, poor fit]. Regarding `COc1ccc(N2CCN(C(=O)CC34CC5CC(CC(C5)C3)C4)CC2)c([N+](=O)[O-])c1`, under setting [1], the AC50 is 20.6 µM [rising, partial curve, poor fit]. For `COc1cc(/C=N/n2c(-c3ccccc3)n[nH]c2=S)ccc1O`, the AC50 under setting [1] was 0.708 µM [falling, full curve, poor fit].

In the case of `CN(C(=O)COc1ccc(Br)cc1Cl)C1CCCCC1`, the AC50 under setting [1] is 0.562 µM [rising, full curve]. Take `Cc1cc(C(=O)Nc2ccc(C)c(C)c2)n(-c2ccccc2)n1`: the AC50 under setting [1] is 10 µM [falling, single point]. Same read-out and setting: then `CCCC(=O)N1CCN(c2ccc(NC(=O)c3ccccc3)cc2)CC1`, with 2.51 µM [rising, partial curve, poor fit]. As for `CC12CCC(C(=O)N(NC(=O)c3ccc(O)cc3)C1=O)C2(C)C` (configuration not stated), under setting [1], the AC50 is 14.1 µM [falling, partial curve, poor fit]. As to `CCc1nn(CC(=O)NCc2cccnc2)c(=O)c2cc3occc3n12`, the AC50 under setting [1] is 10 µM [rising, partial curve, poor fit]. The same measure, in the same setting: the figure for `COc1cc(C(=S)N2CCCCC2)ccc1OCC(=O)Nc1ccc(F)cc1` is 5.62 µM [falling, partial curve]; for `N#Cc1ccc(NC(=S)Nc2ccccc2)cc1` it is 29.1 µM [rising, single point]; for `O=C(Nc1cccc(Cl)c1)c1ccc(F)c(S(=O)(=O)NCc2ccc3c(c2)OCO3)c1` it is 29.1 µM [falling, single point]. As for `O=C(NCCc1cccs1)c1ccc(Cl)cc1`, the AC50 under setting [1] is 11.2 µM [falling, partial curve, poor fit].

Consider `CC(C)CCc1noc(CN2CCC(C(=O)N3CCOCC3)CC2)n1`, for which the concentration at half-maximal activity (AC50) under setting [1] was 35.5 µM [rising, single point]. In the case of `CCCCN(C(=S)Nc1cccc(SC)c1)C1CCN(C(C)=O)CC1`, under setting [1], the AC50 is 6.31 µM [rising, partial curve]. Regarding `O=c1oc(CCO)cc2ccc(-c3ccc4[nH]ccc4c3)cc12`, under setting [1], the AC50 was 20.6 µM [falling, single point]. In the case of `COc1ccc2c(c1[N+](=O)[O-])CCC/C2=N/OC(=O)c1ccccc1SC`, under setting [1], the AC50 was 10 µM [rising, partial curve]. Regarding `CN(Cc1ccccc1)C(=O)CCCn1c(=O)[nH]c2cc(Cl)ccc2c1=O`, under setting [1], the AC50 is 5.17 µM [falling, partial curve, poor fit]. `COc1cc(OC)cc(C(=O)NCC(=O)OC(C)C(=O)NC(C)C2CC3CCC2C3)c1` (configuration not stated): under setting [1], the half-maximal activity concentration (AC50) was 6.51 µM [rising, single point].

In the case of `CNC(=O)NC(=O)CSc1nnc(C(F)(F)F)n1C`, the AC50 under setting [1] is 0.0259 µM [falling, full curve, poor fit]. As to `COc1ccc(OC)c(S(=O)(=O)N2CCN(C34CC5CC(CC(C5)C3)C4)CC2)c1`, the AC50 under setting [1] is 28.2 µM [rising, partial curve, poor fit].

With `Fc1ccccc1CSc1nc2ncccc2[nH]1`, the AC50 under setting [1] was 6.51 µM [falling, single point].

With `Cn1c(CNC(=O)C(Cc2ccccc2)NC(=O)c2ccccc2F)cc(=O)n(C)c1=O` (configuration not stated), under setting [1], the AC50 was 7.94 µM [rising, partial curve, poor fit]. Consider `CCCc1nnc(NC(=O)CSc2nnc(-c3ccco3)n2C)s1`, for which, under setting [1], the AC50 was 1.26 µM [rising, full curve, poor fit]. Take `O=C(COc1ccccc1F)Nc1ccccc1C(=O)NC1CC1`: the AC50 under setting [1] is 16.4 µM [rising, single point]. As to `Cc1cccc2sc(NNC(=O)c3cc(=O)c4ccccc4o3)nc12`, the AC50 under setting [1] was 4.47 µM [falling, partial curve, poor fit]. Consider `CCOC(=O)C1C(=O)CC(C)(O)C(C(=O)OCC)C1c1ccc(OCC)cc1` (configuration not stated), for which the AC50 under setting [1] is 0.00517 µM [rising, full curve, poor fit]. Turning to `COc1ccccc1NC(=O)CSc1nnc(-c2ccncc2)o1`, under setting [1], the AC50 is 9.2 µM [falling, single point]. Still for that read-out and setting: then `CCOC(=O)N1CCN(c2ccc(C(=O)c3ccccc3)cc2F)CC1`, with 15.8 µM [falling, partial curve, poor fit].

Consider `O=C(Nc1cccnc1Cl)c1cc(-c2ccc(F)cc2)on1`, for which the AC50 under setting [1] was 0.282 µM [falling, partial curve, poor fit]. Take `Cc1nc(NCc2ccco2)c2oc3ccccc3c2n1`: the concentration at half-maximal activity (AC50) under setting [1] was 0.82 µM [falling, full curve, poor fit]. With `COc1cc(/C=C2\SC(=Nc3ccccc3)NC2=O)cc(Cl)c1O`, under setting [1], the half-maximal activity concentration (AC50) was 5.62 µM [falling, partial curve, poor fit].

On to `Cc1c(Cl)cccc1NC(=O)CC1Sc2ccccc2NC1=O` (configuration not stated), for which, under setting [1], the AC50 was 6.31 µM [falling, single point]. Still for that read-out and setting: the figure for `CCOC(=O)N1CCc2c(sc3ncn(C)c(=O)c23)C1` is 2.24 µM [rising, full curve, poor fit]. The same measure, in the same setting: the figure for `COc1ccc(Nc2nnc(SCC(=O)c3cc4ccccc4o3)s2)cc1` is 14.1 µM [rising, partial curve, poor fit].

As for `CC(C(=O)O)n1c2ccccc2c2cn[nH]c(=O)c21` (configuration not stated), under setting [1], the AC50 was 3.55 µM [falling, full curve, poor fit]. In the case of `Oc1cccc(C=NCc2ccccc2)c1`, under setting [1], the AC50 is 29.1 µM [falling, single point].

On to `CCOc1ccccc1NC(=O)CCN(c1ccc(C)cc1)S(=O)(=O)c1ccccc1`, for which, under setting [1], the concentration at half-maximal activity (AC50) is 2.06 µM [falling, partial curve, poor fit]. In the case of `CSC1=N/C(=C/c2cccnc2)C(=O)N1Cc1ccccc1`, the AC50 under setting [1] is 0.447 µM [falling, full curve, poor fit]. For the molecule `O=C(/C=C/c1ccco1)Nc1ccc2c(c1)OCCO2`, the concentration at half-maximal activity (AC50) is 5.01 µM [falling, full curve] under setting [1] and 11.2 µM [rising, partial curve, poor fit] (measured here: IkBa-CBG green luminescence). For `CN1CCN(C(=O)CCc2nc3ccccc3n2-c2ccccc2)CC1`, under setting [1], the concentration at half-maximal activity (AC50) is 3.66 µM [rising, partial curve, poor fit].

As for `CC(C)N(CCNCC(O)COc1ccc(C(C)(C)c2ccccc2)cc1)C(C)C` (configuration not stated), under setting [1], the AC50 is 17.8 µM [falling, partial curve, poor fit]. Same read-out and setting: then `CCN1CCN(c2nc3ccccc3nc2C(C#N)C(=O)OCc2ccccc2)CC1` (configuration not stated), with 3.55 µM [rising, full curve, poor fit]. Take `O=S1(=O)N=C(N/N=C/c2ccccn2)c2ccccc21`: the AC50 under setting [1] is 9.2 µM [falling, partial curve].
